Laboratory results taken from US20210393570A1, “THERAPEUTICAL COMPOSITIONS FOR USE IN THE TREATMENT OF NON-MALIGNANT CONDITIONS ASSOCIATED WITH PHOSPHATIDYLINOSITOL-3-KINASE ACTIVATION: OVERGROWTH SPECTRUM, CUTANEOUS CAPILLARY MALFORMATIONS AND SEBORRHEIC KERATOSES” (UNIVERSITÉ DE BOURGOGNE, priority 2017, published 2021).
At least one compound was matched to its structure with a doubt left.

How the values were obtained:
Format in all cases: cell-based, human
HSF1 = assay: Immunoblotting of HSF1 phosphorylation in fibroblasts; conditions: control and patient cells; FIG. 2B
AKT = assay: Immunoblotting of AKT phosphorylation in fibroblasts; conditions: FIG. 2B
P-HSF1 = assay: Nuclear and cytoplasmic localization of P-HSF1 in cells after treatment; conditions: FIG. 2C
patient A fibroblasts = assay: Quantitative PCR of 74 genes known to be regulated by HSF1; conditions: FIG. 2D
Source text: (D) Quantitative PCR analysis of the expression of 74 genes belonging to a cancer-related gene signature in patient A fibroblasts after treatment with LY294002. A code with different patterns is used to illustrate the intensity of the increase (gradient of grey) or decrease (shading pattern) of gene expression compared to untreated cells;
The Inventors have further investigated whether the PI3K/AKT/mTOR pathway is directly responsible for the activation of HSF1 in the fibroblasts of patients. The induction of PI3K/AKT activating pathway by adding insulin to normal fibroblasts is well known. […] To test this hypothesis, the expression of 74 known genes to be regulated by HSF1 have been determined after treatment with the PI3K inhibitor (FIG. 2D). In two independent experiments, the expression of 47 genes is inhibited while the expression of 11 genes is increased. The results are variable for 12 other genes (increase and decrease). […] Thus, a large part of a HSF1-dependent gene signature can be inhibited by the blocking of PI3K and thus confirms the link between these two pathways in the syndrome of segmental hypertrophy PIK3CA dependent.

SMILES	phosphorylation of HSF1 (HSF1)	AKT phosphorylation (AKT)	nuclear and cytoplasmic localization of P-HSF1 (P-HSF1)	expression of CCND2 gene coding for cyclin D2 (patient A fibroblasts)
O=c1cc(N2CCOCC2)oc2c(-c3ccccc3)cccc12 [LY294002]	reduces the phosphorylation of HSF1	Inhibition of AKT phosphorylation	inhibit the nuclear and cytoplasmic localization of P-HSF1	significantly decreased
CO[C@H]1C[C@@H]2CC[C@@H](C)[C@@](O)(O2)C(=O)C(=O)N2CCCC[C@H]2C(=O)O[C@H]([C@H](C)C[C@@H]2CC[C@@H](O)[C@H](OC)C2)CC(=O)[C@H](C)/C=C(\C)[C@@H](O)[C@@H](OC)C(=O)[C@H](C)C[C@H](C)/C=C/C=C/C=C/1C [Rapamycin]	reduces the phosphorylation of HSF1	Inhibition of AKT phosphorylation	inhibit the nuclear and cytoplasmic localization of P-HSF1	
